These are yes or no findings as the source states them, for the method shown. In cells and extracts the contact can be indirect. Some binding calls cover weakened binding; strength is not graded here. Each block holds one molecule with its values, some of them ahead of it.
How the values were obtained:
[1] = biological target: HA-tagged human gankyrin (human) (UniProt O75832); test: co-IP; U-2 OS cells co-transfected with HA-gankyrin and FLAG-SHP-1; lysates immunoprecipitated with anti-FLAG or anti-HA, western blot
FLAG-tagged SHP-1 = FLAG-tagged SHP-1 (UniProt P29350); test: as above
[2] = biological target: SHP-1 (endogenous, mouse colon) (mouse (endogenous in colon tissue)) (UniProt P29351); test: proximity ligation; Duolink fluorescence assay on colonic tissue of AOM/DSS-treated Gankyrin f/f mice with gankyrin and SHP-1 antibodies; confocal microscopy; red dots mainly in non-epithelial cells

The chains behind the UniProt entries cited, without tags or fusion partners.
UniProt O75832: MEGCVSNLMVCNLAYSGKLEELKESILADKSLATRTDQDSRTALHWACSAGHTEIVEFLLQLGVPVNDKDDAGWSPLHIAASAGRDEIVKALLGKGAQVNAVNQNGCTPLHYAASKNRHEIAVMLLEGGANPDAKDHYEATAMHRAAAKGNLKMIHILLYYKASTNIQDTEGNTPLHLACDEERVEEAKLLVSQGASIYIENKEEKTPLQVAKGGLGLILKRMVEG
UniProt P29350: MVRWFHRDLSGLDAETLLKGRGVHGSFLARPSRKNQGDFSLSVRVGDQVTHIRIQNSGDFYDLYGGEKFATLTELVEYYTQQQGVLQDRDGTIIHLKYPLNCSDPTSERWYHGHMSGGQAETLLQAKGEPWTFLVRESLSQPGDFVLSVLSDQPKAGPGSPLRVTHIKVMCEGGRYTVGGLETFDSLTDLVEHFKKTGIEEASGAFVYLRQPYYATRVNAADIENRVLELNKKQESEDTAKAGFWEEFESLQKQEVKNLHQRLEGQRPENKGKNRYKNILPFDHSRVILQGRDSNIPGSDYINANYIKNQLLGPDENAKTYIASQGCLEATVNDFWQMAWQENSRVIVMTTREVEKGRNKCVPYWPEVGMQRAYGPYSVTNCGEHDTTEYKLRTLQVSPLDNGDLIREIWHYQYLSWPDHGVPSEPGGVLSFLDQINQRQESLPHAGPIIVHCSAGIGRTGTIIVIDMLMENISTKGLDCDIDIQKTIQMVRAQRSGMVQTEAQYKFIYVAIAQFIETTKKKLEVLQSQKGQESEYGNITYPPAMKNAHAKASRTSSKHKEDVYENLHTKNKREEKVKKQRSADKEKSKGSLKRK
UniProt P29351: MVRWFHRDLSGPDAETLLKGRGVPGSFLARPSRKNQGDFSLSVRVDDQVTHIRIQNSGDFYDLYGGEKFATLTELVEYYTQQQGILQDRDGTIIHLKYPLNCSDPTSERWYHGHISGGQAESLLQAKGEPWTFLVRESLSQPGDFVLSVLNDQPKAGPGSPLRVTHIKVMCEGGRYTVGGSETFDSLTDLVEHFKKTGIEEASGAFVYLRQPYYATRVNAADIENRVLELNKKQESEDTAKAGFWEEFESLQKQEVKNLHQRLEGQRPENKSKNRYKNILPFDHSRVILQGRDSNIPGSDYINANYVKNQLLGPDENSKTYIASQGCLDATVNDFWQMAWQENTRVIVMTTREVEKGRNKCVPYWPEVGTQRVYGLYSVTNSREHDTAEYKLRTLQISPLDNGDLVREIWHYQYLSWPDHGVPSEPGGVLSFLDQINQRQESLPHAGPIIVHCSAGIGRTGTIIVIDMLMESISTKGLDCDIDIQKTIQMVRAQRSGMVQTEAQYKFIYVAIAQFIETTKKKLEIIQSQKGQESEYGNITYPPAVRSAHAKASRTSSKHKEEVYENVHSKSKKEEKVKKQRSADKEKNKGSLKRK

- binding [1]: binds
Molecule: FLAG-tagged SHP-1 (from UniProt P29350 1-595)

- binding (FLAG-tagged SHP-1): binds
Molecule: HA-tagged human gankyrin (from UniProt O75832 1-226)

- binding [2]: binds
B1: gankyrin (endogenous, mouse colon) (protein, UniProt Q9Z2X2 1-231)
chain: MEGCVSNIMICNLAYSGKLDELKERILADKSLATRTDQDSRTALHWACSAGHTEIVEFLLQLGVPVNDKDDAGWSPLHIAASAGRDEIVKALLVKGAHVNAVNQNGCTPLHYAASKNRHEIAVMLLEGGANPDAKDHYDATAMHRAAAKGNLKMVHILLFYKASTNIQDTEGNTPLHLACDEERVEEAKFLVTQGASIYIENKEEKTPLQVAKGGLGLILKRLAESEEASM
